Data taken from ChEMBL document CHEMBL3988442, “University of Dundee, Small-Polar-MMV Screening Library” (2021).

Mtb growth Cornell: 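Whole-cell assay for inhibitors of Mycobacterium tuberculosis growth, labelled Cornell in the record; the read-out is not stated. The concentration is filed as 10 mM, unlikely as a test dose, so the dose is not known. Higher means stronger inhibition (inferred from two other growth screens of the library). Of about 53,000 compounds tested this way, about 900 (1.7%) reached 50% or more in at least one test.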
Mtb heat-shock: 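Assay on Mycobacterium tuberculosis, filed only as a heat shock assay from Cornell; the read-out is not stated. The concentration is filed as 10 mM, unlikely as a test dose, so the dose is not known. The record gives no direction; compounds that gave an IC50 in retests scored well above the rest, so higher reads as stronger inhibition. Size under these conditions: about 69,000 compounds, about 930 of them at 50% or above in at least one test.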

The filed quantity is “Percent Effect” (%). The record does not define 0% and 100%; most values in the screen are far below 50% and negative numbers occur (in some assays of this library far below -100). The compounds are a random part of those screened. A dash means the value is not listed here; it may have been measured.

structure | Mtb growth Cornell | Mtb heat-shock
CC(C)CCC(=O)N1CCN(C(C)c2nnc(CC(C)C)o2)CC1 (stereo not given) | -27.46% | -38.46%
Cc1ccsc1[C@@H]1CCN(C(=O)CCCn2cncn2)C[C@H]1O | -23.8% | -46.67%
CSCC(C)(O)CNS(=O)(=O)c1cccc(C)c1 (stereo not given) | 8.956% | -22.34%
CC(NC(=O)c1nc(=O)[nH][nH]1)c1ccc(OCC2CC2)c(F)c1 (stereo not given) | -21.9% | -17.14%
O[C@@H]1C[C@@H](c2nc(-c3ccccc3)no2)N(C2CCOCC2)C1 | -11.26% | -2.803%
CCn1cc(CN2CCCN(C(=O)CCn3cc(C)cn3)CC2)cn1 | -15.19% | -3.736%
Cc1cc(C)n(CCC(=O)N2CCCC(c3cc(C(N)=O)[nH]n3)C2)n1 (stereo not given) | - | -14.03%
Cc1ccc(NC(=O)NCCCc2n[nH]c(N)c2C#N)cc1 | -33.4% | 34.07%
COC[C@@H]1CCCN1C(=O)CCc1c(C)nn(C)c1C | - | 16.57%
CN1CCC(c2nc3ccc(-c4cccc(F)c4)cn3n2)CC1.O=C(O)C(F)(F)F | -7.376% | 3.867%
CCN(CC)C(=O)CN1CCCC(c2nc(C)c3c(n2)N(C)CCC3)C1 (stereo not given) | 5.513% | 2.096%
CC(C)(C)CN1CCC(c2nccnc2Nc2cnccn2)CC1 | 6.096% | 9.884%
CN1CCCC(CCC(=O)NCCc2nnc(N)s2)C1 (stereo not given) | 13.69% | 4.568%
Cc1nn(CC(C)C)cc1S(=O)(=O)N(C)Cc1nonc1C | 22.09% | 3.976%
CC(=O)NCC(=O)NC1CCc2c(ccc(=O)n2CC2CC2)C1 (stereo not given) | -1.603% | -18.41%
Cc1cccc(NC2CCN(C(=O)Nc3ccccn3)CC2)n1 | -9.694% | -14.55%
[H][C@]12CC[C@]([H])(CN(S(=O)(=O)N(C)CC)C1)N(Cc1cscn1)C2=O | 6.859% | -28.63%
CC(C)(C)c1ncc(CNCC2CCCn3ccnc32)s1 (stereo not given) | 36.71% | -5.167%
[H][C@]12CC[C@]([H])(CN(S(=O)(=O)N(C)C)C1)N(C(=O)c1cc[nH]c1C)C2 | 35.95% | -3.03%
[H][C@@]12CCN(C3CCCC3)C[C@]1(C(=O)N1CCOCC1)CCO2 | 12.4% | 1.22%
COc1ccc(OC)c(C(O)CNC(=O)Nc2cccnc2OC)c1 (stereo not given) | - | -16.88%
CC(=O)N1CCC1c1nc(-c2ccc(C)s2)no1 (stereo not given) | 7.935% | -13.76%
Cc1ccc(OCC(=O)NC2CC2)nc1 | -2.833% | 4.545%
CCCn1nc2c(cc1=O)CN(CC(=O)Nc1nnc(C)s1)CC2 | 20.35% | 17.66%
O=C(CC1CCCC1)N1CCC2(CC1)[C@H](O)C[C@@H]2O | -8.612% | -2%
CC(C)CNC(=O)CNC(=O)NC(c1nccs1)C1CC1 (stereo not given) | - | -5.614%
[H][C@]12CC[C@]([H])(CN(Cc3ccccn3)C1)N(C(=O)c1cc(C3CC3)no1)C2 | 3.694% | 36.82%
CN1CCC(c2cccc(NCc3nccn3C)n2)CC1 | -20.02% | -7.994%
N#Cc1cccc(C(=O)N2CCCC(O)(CO)CC2)c1 (stereo not given) | -12.15% | 9.712%
O=C(O)C(F)(F)F.[H][C@@]12CCN(Cc3ccccc3C)C[C@]1([H])O[C@@H](C(=O)N(C)C)C2 | 5.35% | -15.63%
COc1cccc(-c2nccc(C3CCCN3C)n2)c1 (stereo not given) | -11.8% | 17.56%
[H][C@@]12CC[C@H](Oc3ccc(Cl)cc3)[C@]1([H])CN(C(=O)Cn1ccnc1)C2 | -6.021% | -16.08%
CCc1noc(-c2cccc(NC(=O)C(C)(C)C)c2)n1 | -2.635% | 24.35%
O=C(NCCCN1CCOCC1)c1cccc(OCc2ccccc2)c1 | - | 5.715%
Cc1nc(C)n(C2CCCN(C(=O)CCOc3cccc(F)c3)C2)n1 (stereo not given) | -30.65% | -5.311%
CN1CC[C@H](N(Cc2ccccc2)Cc2ccccc2)C[C@H](O)C1 | 1.379% | 4.34%
CC(C)N1CCCC(CCCc2ccccn2)(C(=O)O)C1 (stereo not given) | -17.63% | -6.755%
Cc1ncc(CN2CCCC(c3nc4ccccc4n3C(C)C)C2)s1 (stereo not given) | -6.245% | 5.651%
N#Cc1cccc(CNCCC(=O)N2CCc3sccc3C2)c1 | - | -10.59%
COCC1CN(S(=O)(=O)c2cccs2)Cc2ncnn2C1 (stereo not given) | -13.27% | 1.426%
O=C(N[C@@H]1CCCNC1)C1(Oc2ccc(Cl)cc2)CCNCC1 | -41.55% | -7.142%
Cc1ccc(CCC(=O)N2CCCC(c3cc(C(N)=O)[nH]n3)C2)cc1 (stereo not given) | - | -9.434%
CC(C)COC(C)C(=O)NCc1ccccc1 (stereo not given) | - | 19.95%
CC(=O)N1CCC(C(=O)N(C)[C@@H]2CCC[C@@H](N3CCCC3)[C@@H]2O)CC1 | -13.5% | -20.95%
Cl.FC(F)Oc1ccc(CNCc2cc(Cl)c3c(c2)OCO3)cc1 | - | -10.64%
CC(C)OC(=O)N1CCCCC1CCn1cccn1 (stereo not given) | - | -27.96%
c1c[nH]c2nc(C3CCNC3)nc-2c1 (stereo not given) | - | -25.47%
CC(NCCn1c(=O)oc2ccccc21)c1ccccn1 (stereo not given) | 11.05% | 5.47%
CCn1nc(C)c(C(=O)NCc2csc(C3CC3)n2)c1C | 69.61% | 18.34%
Cc1ccc(CNC(c2cccc(F)c2)c2nccn2C)o1.Cl (stereo not given) | 33.47% | 79.6%
Cc1csc(C2CCCCN2C(=O)COCc2nc(C)no2)n1 (stereo not given) | -24.04% | 3.288%
COC(=O)c1cccc(CNC(=O)CCC(F)(F)F)c1 | 16.58% | 4.386%
CN(C)CCN1CCOCC2(CCCN(C(=O)Cc3ccccc3)C2)C1.O=C(O)C(F)(F)F.O=C(O)C(F)(F)F (stereo not given) | 0.3206% | -33.08%
CC(=O)N1CC2(CCN(C(=O)c3ccoc3)C2)C1 | 9.57% | -6.974%
CCNc1cc2c(nn1)CCN(C(=O)C1CCc3ccccc31)C2 (stereo not given) | - | 0.6346%
Cc1ccc2cnn(CCC(=O)Nc3nc(C)c(C)s3)c2c1 | - | 16.66%
CC(C)n1c(=O)nc2n1C(=O)N(c1ccc(F)cc1)C2 | -10.78% | 16.67%
CCCC(CNc1cc(C(C)C)nc2ccnn12)N(C)C (stereo not given) | - | 105.9%
CN(C(=O)NCC1(CN2CCOCC2)CCCCC1)C1CC1 | 30.89% | 11.95%
COc1cc(NCc2c(C)noc2C)c(OC)cc1Cl | 26.01% | -22.6%
O=c1c(NCc2ccncc2)c(NCC(O)CN2CCOCC2)c1=O (stereo not given) | 18.76% | 4.012%
Cc1oncc1C(=O)N1CCC2(CCN(Cc3cccnc3)C2=O)C1.O=C(O)C(F)(F)F (stereo not given) | 12.62% | -18.99%
Cn1ccnc1SCCNC1CCN(c2nc3ccccc3s2)CC1 | -23.78% | -7.131%
CC(C)Nc1ncnc2c1CCN(C(=O)NCc1cccc(F)c1)CC2 | -5.007% | 46.77%
[H][C@@]12CCN(Cc3scnc3C)C[C@]1(C(=O)N1CCCO1)CCO2 | -27.01% | 10.57%
Cn1c(-c2ccccc2Cl)nc2cc(C(=O)NCCOCCO)cnc21 | - | 16.89%
CC(=O)c1cccc(NC(=O)Cn2cc(I)cn2)c1 | 18.59% | 9.22%
O=C(NC1CCS(=O)(=O)c2ccccc21)c1cccs1 (stereo not given) | -10.89% | -16.35%
CC(c1nc(C(C)(C)C)no1)N1CCN(Cc2ccc(C#N)cc2)CC1 (stereo not given) | 6.415% | -6.866%
O=C(NCc1ccccc1F)NC1CCCN(c2ncccn2)C1 (stereo not given) | -39.96% | -0.3252%

For reference, 5 entries once more:

structure,Mtb growth Cornell,Mtb heat-shock
CC(C)OC(=O)N1CCCCC1CCn1cccn1 (stereo not given),-,-27.96%
O=C(CC1CCCC1)N1CCC2(CC1)[C@H](O)C[C@@H]2O,-8.612%,-2%
CC(C)CNC(=O)CNC(=O)NC(c1nccs1)C1CC1 (stereo not given),-,-5.614%
CN(C)CCN1CCOCC2(CCCN(C(=O)Cc3ccccc3)C2)C1.O=C(O)C(F)(F)F.O=C(O)C(F)(F)F (stereo not given),0.3206%,-33.08%
COC[C@@H]1CCCN1C(=O)CCc1c(C)nn(C)c1C,-,16.57%